PubChem BioAssay AID1259305 | Sanger Institute | 2017

Test: 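Find kinase knock-downs that boost drug killing of colorectal cancer cells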 (follow-up of hits)
Cell system: human DIFI colorectal cancer cells
Knock-down reagent: single siRNA against human genes
Treatment: BYL719 1 µM, cetuximab 5 µg/ml or trametinib 10 nM, or DMSO vehicle, added one day after transfection; exposure time not given
Detection: 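Survival relative to a non-targeting siRNA control pool averaged across replicates, with synergy scores per drug weighing the combination against siRNA only and drug only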
Direction: synergy score with BYL719 and synergy score with Cetuximab and synergy score with Trametinib: higher = stronger combined killing than expected; viability, knock-down alone: higher = more cells surviving knock-down; viability with Cetuximab: higher = more cells surviving knock-down plus drug
Hit rule: 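Synergy score over 0.10 with any single drug gives a synergistic, that is synthetic lethal, call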
Here is one part, drawn at random, of 160 deposited reagents. 96 of them (60%) count as active. 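Each call covers one siRNA sequence in one cell line only; gene-level confirmation needs agreement across siRNAs and lines.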 Reagents against one gene are numbered here. No viability above 1 is reported: the scale is capped. The record does not give: the amount of reagent, the time to read-out.

| target | siRNA no. | synergy score with BYL719 | synergy score with Cetuximab | synergy score with Trametinib | viability, knock-down alone | viability with Cetuximab | outcome |
| --- | --- | --- | --- | --- | --- | --- | --- |
| MPP3 (MAGUK p55 scaffold protein 3) | 1 | -0.124 | 0.0527 | -0.0916 | 1 | 0.343 | inactive |
| MPP3 (MAGUK p55 scaffold protein 3) | 2 | -0.0629 | 0.0268 | 0.113 | 0.731 | 0.263 | active |
| MPP3 (MAGUK p55 scaffold protein 3) | 3 | 0.288 | 0.243 | 0.348 | 0.752 | 0.0543 | active |
| MPP3 (MAGUK p55 scaffold protein 3) | 4 | 0.0733 | 0.207 | 0.225 | 0.79 | 0.105 | active |
| PFKFB3 (6-phosphofructo-2-kinase/fructose-2,6-biphosphatase 3) | 1 | 0.0435 | 0.156 | 0.01 | 1 | 0.24 | active |
| PFKFB3 (6-phosphofructo-2-kinase/fructose-2,6-biphosphatase 3) | 2 | 0.134 | 0.243 | 0.26 | 1 | 0.153 | active |
| PFKFB3 (6-phosphofructo-2-kinase/fructose-2,6-biphosphatase 3) | 3 | -0.0792 | 0.116 | -0.0858 | 1 | 0.28 | active |
| PFKFB3 (6-phosphofructo-2-kinase/fructose-2,6-biphosphatase 3) | 4 | 0.0178 | 0.209 | 0.101 | 0.927 | 0.158 | active |
| SYNCRIP (synaptotagmin binding cytoplasmic RNA interacting protein) | 1 | 0.149 | 0.0296 | 0.142 | 0.658 | 0.231 | active |
| SYNCRIP (synaptotagmin binding cytoplasmic RNA interacting protein) | 2 | -0.0209 | 0.00468 | 0.0417 | 1 | 0.391 | inactive |
| SYNCRIP (synaptotagmin binding cytoplasmic RNA interacting protein) | 3 | 0.143 | 0.11 | 0.224 | 0.673 | 0.156 | active |
| SYNCRIP (synaptotagmin binding cytoplasmic RNA interacting protein) | 4 | 0.031 | 0.0744 | 0.0387 | 0.961 | 0.306 | inactive |
| ACVR1 (activin A receptor type 1) | 1 | -0.248 | 0.0562 | -0.153 | 1 | 0.34 | inactive |
| ACVR1 (activin A receptor type 1) | 2 | -0.00118 | 0.096 | 0.0198 | 0.983 | 0.293 | inactive |
| ACVR1 (activin A receptor type 1) | 3 | -0.205 | 0.109 | -0.109 | 1 | 0.287 | active |
| ACVR1 (activin A receptor type 1) | 4 | -0.0575 | 0.215 | 0.232 | 0.969 | 0.168 | active |
| MAP3K8 (mitogen-activated protein kinase kinase kinase 8) | 1 | 0.0392 | 0.0301 | 0.0311 | 1 | 0.366 | inactive |
| MAP3K8 (mitogen-activated protein kinase kinase kinase 8) | 2 | 0.0934 | 0.0478 | 0.11 | 0.801 | 0.269 | active |
| MAP3K8 (mitogen-activated protein kinase kinase kinase 8) | 3 | 0.0273 | -0.0378 | 0.12 | 0.764 | 0.34 | active |
| MAP3K8 (mitogen-activated protein kinase kinase kinase 8) | 4 | 0.145 | 0.183 | 0.249 | 0.827 | 0.144 | active |
| BRAF (B-Raf proto-oncogene, serine/threonine kinase) | 1 | 0.0186 | 0.0233 | 0.0726 | 0.542 | 0.191 | inactive |
| BRAF (B-Raf proto-oncogene, serine/threonine kinase) | 2 | 0.129 | 0.0492 | 0.187 | 0.554 | 0.17 | active |
| BRAF (B-Raf proto-oncogene, serine/threonine kinase) | 3 | 0.161 | 0.182 | 0.298 | 0.922 | 0.183 | active |
| BRAF (B-Raf proto-oncogene, serine/threonine kinase) | 4 | 0.227 | 0.0368 | 0.146 | 0.915 | 0.325 | active |
| CDK6 (cyclin dependent kinase 6) | 1 | 0.198 | 0.103 | 0.109 | 0.966 | 0.279 | active |
| CDK6 (cyclin dependent kinase 6) | 2 | 0.115 | 0.118 | 0.0762 | 0.683 | 0.152 | active |
| CDK6 (cyclin dependent kinase 6) | 3 | -0.0656 | 0.0581 | 0.0392 | 0.957 | 0.321 | inactive |
| CDK6 (cyclin dependent kinase 6) | 4 | -0.021 | 0.0691 | 0.17 | 0.969 | 0.315 | active |
| CDKN2D (cyclin dependent kinase inhibitor 2D) | 1 | 0.0463 | 0.208 | 0.384 | 0.827 | 0.12 | active |
| CDKN2D (cyclin dependent kinase inhibitor 2D) | 2 | 0.00563 | 0.126 | 0.0714 | 0.678 | 0.142 | active |
| CDKN2D (cyclin dependent kinase inhibitor 2D) | 3 | 0.0356 | 0.0767 | 0.218 | 0.96 | 0.303 | active |
| CDKN2D (cyclin dependent kinase inhibitor 2D) | 4 | 0.0457 | 0.0956 | 0.127 | 0.593 | 0.139 | active |
| HUNK (hormonally up-regulated Neu-associated kinase) | 1 | 0.163 | 0.133 | 0.0286 | 0.69 | 0.14 | active |
| HUNK (hormonally up-regulated Neu-associated kinase) | 2 | 0.0223 | 0.0224 | 0.0829 | 0.339 | 0.112 | inactive |
| HUNK (hormonally up-regulated Neu-associated kinase) | 3 | 0.0467 | 0.00319 | 0.159 | 0.895 | 0.351 | active |
| HUNK (hormonally up-regulated Neu-associated kinase) | 4 | 0.114 | 0.0912 | 0.313 | 0.852 | 0.246 | active |
| PIK3CA | 1 | 0.00246 | 0.0535 | 0.095 | 0.708 | 0.227 | inactive |
| PIK3CA | 2 | -0.00969 | 0.119 | 0.278 | 0.774 | 0.188 | active |
| PIK3CA | 3 | -0.0869 | 0.12 | 0.321 | 0.946 | 0.255 | active |
| PIK3CA | 4 | -0.135 | 0.116 | 0.266 | 0.974 | 0.269 | active |
| IRAK3 (interleukin 1 receptor associated kinase 3) | 1 | -0.0154 | 0.00089 | 0.0398 | 0.391 | 0.154 | inactive |
| IRAK3 (interleukin 1 receptor associated kinase 3) | 2 | 0.205 | 0.143 | 0.264 | 0.974 | 0.243 | active |
| IRAK3 (interleukin 1 receptor associated kinase 3) | 3 | 0.0389 | 0.134 | -0.00552 | 1 | 0.262 | active |
| IRAK3 (interleukin 1 receptor associated kinase 3) | 4 | -0.0923 | -0.0553 | 0.0165 | 1 | 0.451 | inactive |
| CSNK2A2 (casein kinase 2 alpha 2) | 1 | -0.188 | 0.0489 | 0.0173 | 1 | 0.347 | inactive |
| CSNK2A2 (casein kinase 2 alpha 2) | 2 | -0.0415 | 0.0299 | 0.0489 | 0.499 | 0.168 | inactive |
| CSNK2A2 (casein kinase 2 alpha 2) | 3 | -0.0443 | -0.00802 | -0.0141 | 0.71 | 0.289 | inactive |
| CSNK2A2 (casein kinase 2 alpha 2) | 4 | 0.0526 | 0.07 | 0.13 | 0.384 | 0.0821 | active |
| PRAG1 (PEAK1 related, kinase-activating pseudokinase 1) | 1 | 0.0396 | 0.0133 | 0.188 | 0.471 | 0.173 | active |
| PRAG1 (PEAK1 related, kinase-activating pseudokinase 1) | 2 | 0.238 | 0.0141 | 0.158 | 0.794 | 0.3 | active |
| PRAG1 (PEAK1 related, kinase-activating pseudokinase 1) | 3 | -0.00192 | 0.00962 | -0.136 | 1 | 0.386 | inactive |
| PRAG1 (PEAK1 related, kinase-activating pseudokinase 1) | 4 | 0.0197 | 0.0471 | 0.0264 | 0.951 | 0.33 | inactive |

As entered above:
BRAF (B-Raf proto-oncogene, serine/threonine kinase) #1, synergy score with BYL719 = 0.0186
Result of HUNK (hormonally up-regulated Neu-associated kinase) #3 in “synergy score with Cetuximab”: 0.00319
For “viability with Cetuximab”, PRAG1 (PEAK1 related, kinase-activating pseudokinase 1) #1 is entered as 0.173
Value of CDKN2D (cyclin dependent kinase inhibitor 2D) #3 under “viability with Cetuximab”: 0.303
MAP3K8 (mitogen-activated protein kinase kinase kinase 8) #2, outcome = active
Under “synergy score with Trametinib”, HUNK (hormonally up-regulated Neu-associated kinase) #2 shows 0.0829
